At least one compound was matched to its structure with a doubt left.
Tests used:
PC3 cells [1] = experiment: Inhibition of Ad-REIC-induced apoptosis by inhibitors (TUNEL); type: cell-based, human; settings: Ad-REIC 10 MOI, 36 hours, V5 at 200 μM added 1 hour prior to transfection
PC3 cells [2] = experiment: Western blot analysis of apoptosis-related and signalling proteins; type: cell-based, human; settings: PC3 cells infected with Ad-REIC

SMILES: Oc1c2ccccc2c2c3c(cccc13)N=N2 [SP600125]
- inhibition of Ad-REIC-induced apoptosis (PC3 cells [1]): inhibited in a concentration-dependent manner
- JNK kinase activity and phosphorylation of JNK (PC3 cells [2]): inhibited JNK kinase activity but not phosphorylation of JNK itself
